Common to all, as to test: proximity labelling
Experiment [1] deals with T1, TurboID fusion to TRIP6-Δ252-277 (UniProt Q15654).
T1 sequence: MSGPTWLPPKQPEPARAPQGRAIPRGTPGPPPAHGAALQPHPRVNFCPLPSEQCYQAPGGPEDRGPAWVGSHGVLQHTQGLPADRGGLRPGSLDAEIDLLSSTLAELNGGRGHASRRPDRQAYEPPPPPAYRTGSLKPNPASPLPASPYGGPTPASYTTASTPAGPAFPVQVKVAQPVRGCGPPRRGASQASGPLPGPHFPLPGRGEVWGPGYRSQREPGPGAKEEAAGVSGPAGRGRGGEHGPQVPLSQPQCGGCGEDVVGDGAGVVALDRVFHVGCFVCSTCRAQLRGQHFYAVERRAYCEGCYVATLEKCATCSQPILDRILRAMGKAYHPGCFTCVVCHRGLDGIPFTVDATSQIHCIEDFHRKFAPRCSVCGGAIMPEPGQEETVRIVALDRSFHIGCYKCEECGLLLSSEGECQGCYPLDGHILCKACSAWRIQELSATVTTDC

Sequences of proteins named here, by UniProt entry; tags and fusion partners are left off.
UniProt P04406: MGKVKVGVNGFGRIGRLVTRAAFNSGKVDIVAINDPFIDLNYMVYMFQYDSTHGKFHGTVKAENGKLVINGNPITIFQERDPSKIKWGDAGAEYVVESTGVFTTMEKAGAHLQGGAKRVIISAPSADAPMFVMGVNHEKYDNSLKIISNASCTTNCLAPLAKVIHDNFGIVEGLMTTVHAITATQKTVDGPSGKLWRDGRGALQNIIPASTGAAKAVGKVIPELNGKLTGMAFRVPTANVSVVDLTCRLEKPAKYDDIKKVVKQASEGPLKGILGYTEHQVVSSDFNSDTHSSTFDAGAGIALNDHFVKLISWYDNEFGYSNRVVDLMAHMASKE
UniProt Q9UGP4: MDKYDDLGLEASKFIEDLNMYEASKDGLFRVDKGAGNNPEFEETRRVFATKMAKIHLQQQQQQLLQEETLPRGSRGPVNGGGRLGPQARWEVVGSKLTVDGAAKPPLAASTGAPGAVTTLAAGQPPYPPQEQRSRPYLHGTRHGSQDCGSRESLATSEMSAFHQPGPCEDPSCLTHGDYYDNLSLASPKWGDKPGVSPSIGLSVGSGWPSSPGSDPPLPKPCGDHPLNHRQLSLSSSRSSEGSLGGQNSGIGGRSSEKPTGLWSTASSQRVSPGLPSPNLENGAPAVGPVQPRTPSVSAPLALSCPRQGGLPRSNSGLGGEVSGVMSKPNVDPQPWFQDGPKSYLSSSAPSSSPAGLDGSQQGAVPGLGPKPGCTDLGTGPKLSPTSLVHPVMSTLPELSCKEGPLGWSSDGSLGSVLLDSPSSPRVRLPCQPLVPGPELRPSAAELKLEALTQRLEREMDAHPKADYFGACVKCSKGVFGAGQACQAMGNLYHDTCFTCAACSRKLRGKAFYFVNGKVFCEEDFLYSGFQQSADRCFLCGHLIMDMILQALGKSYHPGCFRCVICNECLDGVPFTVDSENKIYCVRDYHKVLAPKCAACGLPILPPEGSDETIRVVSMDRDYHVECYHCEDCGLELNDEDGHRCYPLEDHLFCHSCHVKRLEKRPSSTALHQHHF
UniProt P35221: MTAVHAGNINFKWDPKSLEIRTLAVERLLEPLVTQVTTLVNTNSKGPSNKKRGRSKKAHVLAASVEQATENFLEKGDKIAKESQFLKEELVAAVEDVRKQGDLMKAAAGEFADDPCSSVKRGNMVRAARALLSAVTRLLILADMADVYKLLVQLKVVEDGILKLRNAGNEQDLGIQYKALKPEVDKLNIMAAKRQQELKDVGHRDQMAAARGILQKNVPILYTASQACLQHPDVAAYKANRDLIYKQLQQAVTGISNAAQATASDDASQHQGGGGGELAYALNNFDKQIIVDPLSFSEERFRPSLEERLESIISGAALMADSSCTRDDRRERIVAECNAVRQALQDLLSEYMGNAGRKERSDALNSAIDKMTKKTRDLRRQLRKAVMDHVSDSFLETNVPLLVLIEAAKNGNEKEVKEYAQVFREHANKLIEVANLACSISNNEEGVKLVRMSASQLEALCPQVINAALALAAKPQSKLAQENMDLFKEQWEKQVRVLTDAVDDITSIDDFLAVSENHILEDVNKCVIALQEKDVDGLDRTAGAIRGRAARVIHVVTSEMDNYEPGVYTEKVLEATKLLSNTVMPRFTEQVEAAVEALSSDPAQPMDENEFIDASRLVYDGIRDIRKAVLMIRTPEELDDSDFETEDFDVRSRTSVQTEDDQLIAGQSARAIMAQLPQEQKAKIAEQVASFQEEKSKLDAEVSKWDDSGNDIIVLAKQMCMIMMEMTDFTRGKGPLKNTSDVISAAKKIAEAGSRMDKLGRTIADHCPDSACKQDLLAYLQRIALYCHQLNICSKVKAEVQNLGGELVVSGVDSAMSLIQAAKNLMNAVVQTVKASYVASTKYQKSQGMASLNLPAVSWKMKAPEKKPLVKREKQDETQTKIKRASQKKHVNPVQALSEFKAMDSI

The target of experiment [2] is T2, TurboID fusion to wild-type TRIP6 (UniProt Q15654).
T2 sequence: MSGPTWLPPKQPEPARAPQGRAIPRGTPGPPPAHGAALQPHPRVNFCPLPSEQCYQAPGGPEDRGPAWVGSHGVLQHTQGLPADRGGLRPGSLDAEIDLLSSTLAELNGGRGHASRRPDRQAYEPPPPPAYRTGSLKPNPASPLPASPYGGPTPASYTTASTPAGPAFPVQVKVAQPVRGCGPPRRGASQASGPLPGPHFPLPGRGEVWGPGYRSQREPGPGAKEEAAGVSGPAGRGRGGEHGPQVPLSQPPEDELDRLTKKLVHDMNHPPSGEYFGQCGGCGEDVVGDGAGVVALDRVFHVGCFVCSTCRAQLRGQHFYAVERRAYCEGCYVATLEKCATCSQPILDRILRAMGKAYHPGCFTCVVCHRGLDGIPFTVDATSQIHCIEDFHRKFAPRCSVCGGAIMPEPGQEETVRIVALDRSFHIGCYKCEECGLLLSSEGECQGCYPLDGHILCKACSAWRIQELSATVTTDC

Experiment [3] concerns the target T3, TurboID fusion to TRIP6-mut1,2,3 (UniProt Q15654).
T3 sequence: T2 sequence with F319A, F377A, Y449A

Substitutions are numbered along the chain they refer to. These are yes or no findings as the source states them, for the method shown. In cells and extracts the contact can be indirect. These calls come from enrichment with a bait or labelling near it, and not all partners need be listed. For some of these results: A no says only that the protein was not detected with the bait. Tags and fused reporters may be left off the sequences shown.

With “GAPDH (from UniProt P04406 1-335) (enzyme)”, the binding result in experiment [1] and in experiment [2] was “no binding” throughout.

As to LIMD1 (from UniProt Q9UGP4 1-676), the binding entry in experiment [3], in experiment [1] and in experiment [2] was “binds” each time.

On to α-E catenin (from UniProt P35221 1-906), for which the binding result in experiment [1] and in experiment [2] was “binds weakly” in each case.

The values above are taken from doi:10.1101/2023.10.12.562097.
